Source: patent publication US8481005B2, “Methods to prevent cytotoxicity using N-acetyl-cysteine” (priority 2006, dated 2013)
At least one structure is not confirmed: it was looked up by name or label, or the drawing left a doubt.

Tests used:
[1] = system: osteopontin (OPN) and osteocalcin (OCN); test: RT-PCR for osteopontin and osteocalcin in rat dental pulp stromal cells; format: cell-based; settings: media containing ascorbic acid and β-glycerophosphate
[2] = system: dental pulp stromal cells; test: Apoptosis of rat dental pulp stromal cells under three differentiation conditions; format: cell-based; settings: cells cultured in DMEM+β-glycerophosphate+ascorbic acid+dexamethasone; HEMA (0.0082M) 18 hours

Compound: C[C@@H]1C[C@H]2[C@@H]3CCC4=CC(=O)C=C[C@]4(C)[C@@]3(F)[C@@H](O)C[C@]2(C)[C@@]1(O)C(=O)CO [dexamethasone]
- differentiation markers OPN and OCN [1]: differentiated the dental pulp stromal cells towards osteoblasts
- resistance to HEMA mediated cell death [2]: more resistant to HEMA mediated cell death
